According to patent US20060265769A1, “Gab2 (p97) gene and methods of use thereof” (Beth Israel Deaconess Medical Center, Inc., priority 2000, published 2006):
No constants are given. Whether binding was seen depends on the method and setting. For part of these data: Binding seen in cells or lysates may run through a third protein. Some binding calls cover weakened binding; strength is not graded here.

Sequences of proteins named here, by UniProt entry; tags and fusion partners are left off. A change or cut given only in a name is not applied to a line headed by its entry. Residues count along the entry.
UniProt P26450, residues 2-724: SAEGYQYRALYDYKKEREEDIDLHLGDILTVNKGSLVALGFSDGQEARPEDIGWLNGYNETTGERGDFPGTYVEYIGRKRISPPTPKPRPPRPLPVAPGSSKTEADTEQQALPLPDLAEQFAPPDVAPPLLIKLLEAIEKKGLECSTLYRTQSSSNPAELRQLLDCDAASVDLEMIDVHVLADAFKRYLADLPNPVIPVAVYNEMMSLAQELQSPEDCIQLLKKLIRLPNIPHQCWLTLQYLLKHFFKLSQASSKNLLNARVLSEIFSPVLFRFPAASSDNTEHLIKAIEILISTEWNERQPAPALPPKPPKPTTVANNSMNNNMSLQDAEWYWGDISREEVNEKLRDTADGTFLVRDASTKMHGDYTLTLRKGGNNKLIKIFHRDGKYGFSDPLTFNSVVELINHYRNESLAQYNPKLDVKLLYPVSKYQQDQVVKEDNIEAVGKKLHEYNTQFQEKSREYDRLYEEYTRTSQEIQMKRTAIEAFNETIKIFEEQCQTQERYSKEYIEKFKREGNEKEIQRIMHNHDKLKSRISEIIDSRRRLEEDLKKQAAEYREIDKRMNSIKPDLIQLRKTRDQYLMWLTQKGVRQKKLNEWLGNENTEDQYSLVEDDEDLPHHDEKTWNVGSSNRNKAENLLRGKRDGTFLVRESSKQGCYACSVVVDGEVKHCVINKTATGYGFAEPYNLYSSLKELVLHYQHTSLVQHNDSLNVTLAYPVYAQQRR
UniProt Q60631: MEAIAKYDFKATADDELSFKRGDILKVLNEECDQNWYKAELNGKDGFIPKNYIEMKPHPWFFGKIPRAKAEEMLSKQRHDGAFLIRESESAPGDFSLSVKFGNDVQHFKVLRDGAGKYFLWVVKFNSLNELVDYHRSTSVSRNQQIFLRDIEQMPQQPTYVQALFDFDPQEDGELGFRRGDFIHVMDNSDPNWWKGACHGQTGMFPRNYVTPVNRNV
UniProt P27986, residues 2-724: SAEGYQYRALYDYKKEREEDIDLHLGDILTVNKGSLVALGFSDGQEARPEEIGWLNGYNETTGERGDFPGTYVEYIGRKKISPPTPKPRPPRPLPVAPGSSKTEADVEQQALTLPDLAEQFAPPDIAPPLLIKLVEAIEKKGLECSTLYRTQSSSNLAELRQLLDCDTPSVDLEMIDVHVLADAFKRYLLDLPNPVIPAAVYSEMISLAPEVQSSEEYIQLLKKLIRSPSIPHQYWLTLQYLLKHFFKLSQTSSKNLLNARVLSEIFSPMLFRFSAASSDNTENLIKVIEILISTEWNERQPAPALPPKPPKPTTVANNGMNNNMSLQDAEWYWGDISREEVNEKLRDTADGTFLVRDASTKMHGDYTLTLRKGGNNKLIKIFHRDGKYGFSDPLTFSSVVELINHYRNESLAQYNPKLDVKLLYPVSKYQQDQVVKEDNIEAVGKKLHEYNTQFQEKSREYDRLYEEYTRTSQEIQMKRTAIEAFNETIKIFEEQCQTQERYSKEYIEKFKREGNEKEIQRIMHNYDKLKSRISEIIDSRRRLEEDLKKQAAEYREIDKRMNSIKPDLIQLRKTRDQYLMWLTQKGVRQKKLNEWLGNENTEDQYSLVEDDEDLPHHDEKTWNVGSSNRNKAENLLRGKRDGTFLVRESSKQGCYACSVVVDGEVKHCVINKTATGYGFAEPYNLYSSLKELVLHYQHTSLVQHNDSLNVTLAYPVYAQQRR
UniProt Q9Z1S8: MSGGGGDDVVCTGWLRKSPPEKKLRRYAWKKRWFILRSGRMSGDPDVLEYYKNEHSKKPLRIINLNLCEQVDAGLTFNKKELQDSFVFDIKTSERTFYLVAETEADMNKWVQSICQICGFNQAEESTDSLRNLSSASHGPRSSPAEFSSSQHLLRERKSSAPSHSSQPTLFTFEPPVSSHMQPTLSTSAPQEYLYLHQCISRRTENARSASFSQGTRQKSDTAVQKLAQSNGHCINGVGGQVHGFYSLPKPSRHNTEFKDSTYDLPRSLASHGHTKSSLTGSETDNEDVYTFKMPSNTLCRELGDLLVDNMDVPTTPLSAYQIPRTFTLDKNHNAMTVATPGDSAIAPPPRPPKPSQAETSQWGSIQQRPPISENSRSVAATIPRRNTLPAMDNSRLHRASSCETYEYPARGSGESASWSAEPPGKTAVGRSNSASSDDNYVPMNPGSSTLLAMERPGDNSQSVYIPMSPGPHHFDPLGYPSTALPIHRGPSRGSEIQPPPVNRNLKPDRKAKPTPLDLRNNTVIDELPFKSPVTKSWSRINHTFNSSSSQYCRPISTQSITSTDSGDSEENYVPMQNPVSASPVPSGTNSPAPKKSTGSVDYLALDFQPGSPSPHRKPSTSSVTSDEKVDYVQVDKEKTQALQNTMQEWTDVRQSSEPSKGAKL
UniProt Q9UQC2: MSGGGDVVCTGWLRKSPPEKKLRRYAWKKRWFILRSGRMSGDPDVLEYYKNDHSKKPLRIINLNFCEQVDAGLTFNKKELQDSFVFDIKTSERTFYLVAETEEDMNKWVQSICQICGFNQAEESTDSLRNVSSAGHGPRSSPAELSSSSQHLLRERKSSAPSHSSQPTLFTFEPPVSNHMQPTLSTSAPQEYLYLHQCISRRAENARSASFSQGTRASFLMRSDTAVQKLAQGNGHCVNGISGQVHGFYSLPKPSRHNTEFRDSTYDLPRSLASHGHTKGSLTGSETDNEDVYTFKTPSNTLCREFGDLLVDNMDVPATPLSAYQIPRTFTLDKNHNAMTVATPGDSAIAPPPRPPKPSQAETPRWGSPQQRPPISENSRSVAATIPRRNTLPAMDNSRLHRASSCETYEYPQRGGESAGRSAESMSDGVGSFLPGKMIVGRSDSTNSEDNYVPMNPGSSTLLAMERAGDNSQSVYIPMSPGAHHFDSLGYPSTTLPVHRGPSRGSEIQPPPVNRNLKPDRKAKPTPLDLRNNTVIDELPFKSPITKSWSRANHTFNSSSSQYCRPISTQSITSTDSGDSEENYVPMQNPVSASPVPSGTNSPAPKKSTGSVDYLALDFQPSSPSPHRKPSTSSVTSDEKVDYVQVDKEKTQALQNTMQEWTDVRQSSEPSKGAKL

Tests used:
[1] = target: p85 subunit of PI-3K (UniProt P26450); experiment: co-immunoprecipitation, IL-3-stimulated BaF3 cells expressing Gab2HA
[2] = target: T1, Shc (UniProt P98083); experiment: as above
T1 sequence (looked up): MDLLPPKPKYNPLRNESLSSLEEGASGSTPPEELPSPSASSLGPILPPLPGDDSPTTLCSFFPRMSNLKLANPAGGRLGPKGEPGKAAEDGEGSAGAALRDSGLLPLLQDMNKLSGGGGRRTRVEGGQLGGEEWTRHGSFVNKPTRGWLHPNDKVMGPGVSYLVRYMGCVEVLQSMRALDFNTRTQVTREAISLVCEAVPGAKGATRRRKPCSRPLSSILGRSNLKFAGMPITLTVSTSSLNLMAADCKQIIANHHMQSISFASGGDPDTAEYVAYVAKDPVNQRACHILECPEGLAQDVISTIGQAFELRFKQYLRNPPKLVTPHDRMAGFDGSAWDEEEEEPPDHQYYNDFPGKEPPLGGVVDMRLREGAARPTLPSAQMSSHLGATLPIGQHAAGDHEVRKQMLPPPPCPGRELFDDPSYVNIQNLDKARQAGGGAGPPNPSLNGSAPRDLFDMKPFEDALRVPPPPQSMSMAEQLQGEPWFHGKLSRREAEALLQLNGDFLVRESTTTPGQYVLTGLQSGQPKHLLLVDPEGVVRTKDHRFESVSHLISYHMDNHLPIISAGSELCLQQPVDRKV

[3] = target: Grb2 (UniProt Q60631); experiment: co-immunoprecipitation, BaF3 cells expressing Gab2HA, with and without IL-3
[4] = target: p85 subunit of PI-3K (UniProt P26450); experiment: co-immunoprecipitation from transfected BaF3 cells
[5] = target: T1, Shc; experiment: co-immunoprecipitation from transfected BaF3 cells
[6] = target: p85 (endogenous, in MDA-MB-486 cells) (UniProt P27986); experiment: Gab2 immunoprecipitation followed by immunoblotting with p85 antibodies

In the case of Gab2HA (from UniProt Q9Z1S8 1-665), the binding [1] is reported as “binds”, the binding [2] is reported as “binds” and the binding [3] is reported as “binds”.
With Gab2ΔY2HA (from UniProt Q9Z1S8 1-602) the binding [4] was “binds” and the binding [5] was “binds”.
With “Gab2 (endogenous, in Kit225, Jurkat and MDA-MB-486 cells) (from UniProt Q9UQC2 1-676)” the binding [6] was “binds”.
